Measured values: PubChem BioAssay AID504444 (National Center for Advancing Translational Sciences (NCATS), 2011)
About 7,500 (2.1%) of roughly 360,000 compounds were called active. The shares of active, inactive and inconclusive entries below differ from those in the screen. Calls follow the shape of the dose curve; as a rule, active = well fitted inhibition curve with a large enough effect; inconclusive = small, poorly fitted or top-dose-only effect, or effect the other way; inactive = flat fitted curve, though single readings scatter. Where the call is inconclusive, the potency comes from a doubtful curve fit.
Potency is read from the fitted curve at half-maximal effect.

Assay: Nrf2 qHTS screen for inhibitors; also: nearly all actives have a fitted effect of over 60% in size
Details: A549 ARE-Fluc reporter, luciferase luminescence, 18-24 h; series mostly up to 46 µM
Procedure, shortened: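 Nrf2 activity is the BugLite luminescence, read 15 min after reagent at room temperature, following CellTiter-Fluor cytotoxicity readout (30 min, 37C). Compound titrations were applied for 18-24 h to 5000 A549 ARE_Fluc cells/well in 5% FBS OPTI-MEM.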
With `COc1ccccc1N1C(=O)C2C3C=CC(C3)C2C1=O` (centres undefined) the Potency was inconclusive: 25.9 µM [activator, partial curve, poor fit]. In the case of `CCN(Cc1ccccc1)C(=O)Nc1ccc2c(c1)N(C)C(=O)c1ccccc1S2`, the Potency is reported as inconclusive: 7.31 µM [falling, partial curve, poor fit]. For `COc1cc(NC(=O)c2cc(OC)c(OC)c(OC)c2)ccc1NC(=O)c1cccs1`, the Potency was inconclusive: 11.6 µM [falling, partial curve, poor fit]. In the case of `COc1ccc(Cn2c(SCC#N)nc3ccc(N4CCOCC4)cc3c2=O)cc1`, the Potency is reported as inconclusive: 5.8 µM [activator, full curve]. In the case of `Cc1cc2oc(=O)cc(-c3ccccc3)c2c(C)c1-c1ccc(C#N)cc1`, the Potency is reported as inconclusive: 32.6 µM [falling, single point]. In the case of `COc1ccc(-n2c(-c3ccc(Br)cc3)n[nH]c2=S)cc1`, the Potency is reported as “inactive”. For `Cc1ccc2c(C)c(C(=O)N3CCCCC3CO)oc2c1C` (centres undefined), the Potency was inconclusive: 9.2 µM [activator, partial curve, poor fit]. For `CCc1cc2c(SCC(=O)c3ccccc3)ncnc2s1`, the Potency was inconclusive: 5.17 µM [activator, partial curve]. For `CC1CCCCC12NC(=O)N(CC(=O)NCc1ccccc1)C2=O` (centres undefined), the Potency was inconclusive: 4.11 µM [falling, single point]. In the case of `Cc1ccc(NS(=O)(=O)c2cc3c(cc2F)NC(=O)CC3)cc1Cl`, the Potency is reported as inconclusive: 9.2 µM [falling, partial curve, poor fit]. In the case of `COc1ccc(-c2csc(NC(=O)CCN3C(=O)C4CC=CCC4C3=O)n2)cc1OC` (centres undefined), the Potency is reported as “inactive”. For `COCCCNC(=O)C(=O)NCCCOC(C)C`, the Potency was inconclusive: 6.51 µM [falling, single point]. In the case of `COC(=O)c1c(C)oc2c1cc(NS(=O)(=O)c1c(C)cc(C)cc1C)c1ccccc12`, the Potency is reported as “inactive”. In the case of `O=S(=O)(c1ccc(Cl)cc1)c1nc(-c2ccccc2Br)oc1N1CCOCC1`, the Potency is reported as inconclusive: 29.1 µM [falling, single point]. In the case of `CCOC(=O)Cn1c2ccc(F)cc2c2nc(C)sc21`, the Potency is reported as inconclusive: 0.058 µM [falling, partial curve, poor fit]. For `Fc1ccccc1C1c2[nH]c3ccccc3c2CCN1Cc1cccn1-c1ncccn1` (centres undefined), the Potency was inconclusive: 29.1 µM [activator, single point]. In the case of `Cc1cc(/C=C2\SC(=S)NC2=O)c(C)n1C1CC1`, the Potency is reported as inconclusive: 16.4 µM [activator, partial curve, poor fit]. For `CCN(CC)c1ccc(-c2nc3cnccn3c2NC2CCCC2)cc1`, the Potency was inconclusive: 32.6 µM [falling, single point]. For `Cn1cc(Br)c(C(=O)NC2CCCCCC2)n1`, the Potency was inconclusive: 3.26 µM [activator, partial curve, poor fit]. For `CCN1CCN(Cc2ccc(NC(=O)Nc3ccccc3OC)cc2)CC1`, the Potency was inconclusive: 4.61 µM [activator, full curve]. For `COc1ccc(CNC(=O)C[C@H]2C(=O)N(c3ccccc3)C[C@@H]2Cc2ccccc2)cc1`, the Potency was inconclusive: 29.1 µM [falling, single point]. With `Cc1cc(NC(=O)CCC(=O)N(CC(=O)NC2CCCC2)c2ccc(C(C)C)cc2)no1` the Potency was inconclusive: 9.2 µM [falling, partial curve, poor fit]. For `CC(=O)N/C(=C\c1ccccc1)C(=O)OCC(=O)N(C)C1CCS(=O)(=O)C1` (centres undefined), the Potency was “inactive”. With `Cc1ccc(NC(=O)CCc2c(C)nn(-c3ccc(N4CCCCC4)nn3)c2C)cc1F` the Potency was inconclusive: 23.1 µM [falling, single point]. For `O=c1[nH]c(-c2ccc(-c3cccc(Cl)c3)o2)nc2ccccc12`, the Potency was inconclusive: 0.82 µM [activator, full curve, poor fit]. For `COc1cccc(NC(=O)COC(=O)c2c(F)cccc2Cl)c1`, the Potency was inconclusive: 7.31 µM [activator, partial curve]. With `NC1=NC(=Nc2cccc(Cl)c2)c2ccccc21` the Potency was inconclusive: 20.6 µM [falling, partial curve, poor fit]. With `C=CCn1c(COc2cccc(C)c2)nnc1SC(C)C(=O)NC1CC1` (centres undefined) the Potency was “inactive”. In the case of `CC(C)(Oc1ccc(CCNC(=O)c2ccc(-c3ccc(Cl)cc3)o2)cc1)C(=O)O`, the Potency is reported as inconclusive: 2.59 µM [activator, single point]. In the case of `Cn1cc(C2NC(=O)c3ccccc3N2)c2ccccc21` (centres undefined), the Potency is reported as inconclusive: 10.3 µM [activator, partial curve]. For `CCCCOc1ccc(C(C)NC(=O)CCS(=O)(=O)Cc2ccccc2Cl)cc1` (centres undefined), the Potency was inconclusive: 0.164 µM [activator, full curve, poor fit]. In the case of `COc1ccc(C(=O)N(C)c2ccccc2C(=O)NCCc2ccccc2)cc1`, the Potency is reported as inconclusive: 20.6 µM [falling, single point]. In the case of `CC(=O)Oc1ccc(/C=N/NC(=O)C2CCCN2S(=O)(=O)c2ccc(Cl)cc2)cc1` (centres undefined), the Potency is reported as inconclusive: 29.1 µM [activator, single point]. With `CCCNc1nc(-c2ccccc2)c(C(=O)OCC)cc1C#N` the Potency was “inactive”. In the case of `CCCN1C(=O)C(O)(c2c(C)[nH]c3ccccc23)c2ccccc21` (centres undefined), the Potency is reported as inconclusive: 8.2 µM [falling, partial curve, poor fit]. For `COc1ccc(Cl)cc1NS(=O)(=O)c1c(C)nc2scc(C)n2c1=O`, the Potency was “inactive”. For `O=[N+]([O-])c1cccc(S(=O)(=O)Nc2ccc(S(=O)(=O)N3CCCC3)cc2)c1`, the Potency was “inactive”. In the case of `Cc1cc(NC(=O)CSc2nnc(-c3ccc(Cl)s3)o2)no1`, the Potency is reported as inconclusive: 14.6 µM [activator, partial curve]. With `Fc1ccccc1CNc1nc(-c2cccnc2)nc2ccccc12` the Potency was inconclusive: 29.1 µM [falling, single point]. With `CCCCN(C)CCNC(=O)c1cc2c(-c3ccccc3F)nn(C)c2s1` the Potency was “inactive”. With `O=S(=O)(NC[C@@H]1CCC[C@H](CNS(=O)(=O)c2c(F)cccc2F)C1)c1ccc2c(c1)OCCO2` the Potency was inconclusive: 20.6 µM [falling, single point]. For `Nn1c(SCc2cccc(Oc3ccccc3)c2)nnc1C(F)(F)F`, the Potency was inconclusive: 13 µM [activator, partial curve, poor fit]. In the case of `CCOC(=O)C1=C(c2ccccc2)OC(N)=C(C#N)C1c1ccc(Cl)s1` (centres undefined), the Potency is reported as inconclusive: 14.6 µM [falling, partial curve, poor fit]. In the case of `CCCC(NC(=O)CCl)c1ccccc1` (centres undefined), the Potency is reported as inconclusive: 6.51 µM [falling, full curve, poor fit]. For `CC(=O)N1c2ccc(S(=O)(=O)N3CCC(C(=O)N4CCN(c5cccc(C(F)(F)F)c5)CC4)CC3)cc2CC1C` (centres undefined), the Potency was inconclusive: 5.8 µM [falling, single point]. For `Cc1ccc(N(Cc2cc(=O)[nH]c3ccccc23)C(=O)C(C)C)c(C)c1`, the Potency was inconclusive: 10.3 µM [falling, partial curve, poor fit]. In the case of `Cc1ccc(CCNC(=O)c2nnc(Cc3cccc(F)c3)o2)cc1`, the Potency is reported as “inactive”. For `Cc1ccc(S(=O)(=O)N2CCN(C(=O)Cn3nc(C(=O)O)c4ccccc4c3=O)CC2)cc1`, the Potency was inconclusive: 23.1 µM [activator, partial curve, poor fit]. In the case of `O=C(CNC(=O)c1ccccc1)OC1CCCCC1`, the Potency is reported as inconclusive: 0.731 µM [activator, full curve]. With `COc1ccc(NC(=O)CSc2nc3n[nH]c(C)c3c(=N)n2-c2ccc(Cl)c(C)c2)cc1OC` the Potency was inconclusive: 29.1 µM [falling, single point]. With `COC(=O)c1sc(N2C(=O)c3oc4ccccc4c(=O)c3C2c2cccc(O)c2)nc1C` (centres undefined) the Potency was “inactive”. With `CC(C)Oc1ccc(C(=O)Nc2ccc3oc(-c4ccncc4)nc3c2)cc1` the Potency was inconclusive: 0.58 µM [falling, full curve]. With `O=S(=O)(Nc1nc2ccccc2nc1Nc1ccc2c(c1)OCO2)c1ccc(F)cc1` the Potency was inconclusive: 23.1 µM [falling, single point]. For `O=C(NCc1cc(C(F)(F)F)cc(C(F)(F)F)c1)C1CC(c2c(Cl)cccc2Cl)=NO1` (centres undefined), the Potency was inconclusive: 29.1 µM [falling, single point]. With `C#CCN(C#N)c1nc(NCC)nc(NC(C)C)n1` the Potency was inconclusive: 3.66 µM [activator, full curve, poor fit]. In the case of `O=C(CSc1c2c(nc3ccc(Cl)cc13)CCCC2)N1CCN(C(=O)c2ccco2)CC1`, the Potency is reported as inconclusive: 20.6 µM [activator, partial curve, poor fit]. With `O=[N+]([O-])c1cc(S(=O)(=O)Nc2cccc(Cl)c2)ccc1N=Nc1c(O)[nH]c2ccccc12` the Potency was active: 20.6 µM. For `CC(=O)OCC(=O)C1(O)CCC2C3CCC4=CC(=O)CCC4(C)C3(Cl)C(O)CC21C` (centres undefined), the Potency was active: 1.16 µM. For `COC(=O)c1sc(S(=O)(=O)N2CCCCC2C(=O)O)c(C(=O)OC)c1C` (centres undefined), the Potency was “inactive”. With `O=C(NCc1cccnc1)c1ccc(CS(=O)(=O)c2ccc(Cl)cc2)o1` the Potency was inconclusive: 29.1 µM [falling, single point]. In the case of `CC(C)c1ccc(NC(=S)NNC(=O)c2cccs2)cc1`, the Potency is reported as inconclusive: 9.2 µM [activator, partial curve]. For `Cc1ccc(-c2nc3cc(N)ccc3o2)cc1`, the Potency was inconclusive: 0.517 µM [activator, full curve]. With `CCOC(=O)c1sc(=NC(=O)c2ccco2)n(C)c1C` the Potency was inconclusive: 7.31 µM [activator, partial curve]. In the case of `COC(=O)c1cc2c(ccn2-c2ccc(F)cc2)n1CC(=O)OC(C)C`, the Potency is reported as inconclusive: 18.4 µM [falling, partial curve, poor fit].
